Test: general procedure: Fmoc solid-phase peptide synthesis; Fmoc-Val-Wang resin
Conditions: whole synthesis

Phe-Leu-Pro-Ser-Asp-Phe-Phe-Pro-Ser-Val
crude mass: about 45 g
isolated mass: 12.5 g
isolated yield (total yield, scale of the general procedure 62.5 g resin): about 22%

From patent US20110301101 (published 2011)
